Experimental data taken from US20230218771A1, “SELF-ASSEMBLING PRODRUGS AS IMMUNE BOOSTERS FOR CANCER IMMUNOTHERAPY” (priority 2020, published 2023).
Not every detail of the peptide structures is certain; ends, links or a residue may be inferred. Where a SMILES comes first, the peptide text is derived from it. Bridges are numbered along the chain shown (N, C = ends). [ ]: non-standard residue; d: D form. The star is where a group is joined. ξ: configuration not given here. X1 = CC[C@@]1(OC(=O)OCCSSC[C@H](NC(C)=O)C(=O)*)C(=O)OCc2c1cc1n(c2=O)Cc2cc3ccccc3nc2-1; S(CH2)2OCO2(CPT-20-yl) = CC[C@@]1(OC(=O)OCCS*)C(=O)OCc2c1cc1n(c2=O)Cc2cc3ccccc3nc2-1; ξR = N=C(N)NCCCC(N)C(=O)O

What was measured:
GL-261 tumors [1] = experiment: Flow cytometry and cytokine detection in GL-261 tumors (CDA series); type: in vivo, C57BL/6 mice; conditions: day 3 post-treatment
GL-261 tumors [2] = experiment: GL-261 tumor model in STING-deficient mice; type: in vivo, STINGgt/gt mice

CC[C@@]1(OC(=O)OCCSSC[C@H](NC(C)=O)C(=O)NCCCC[C@H](NC(=O)[C@H](CSSCCOC(=O)O[C@]2(CC)C(=O)OCc3c2cc2n(c3=O)Cc3cc4ccccc4nc3-2)NC(C)=O)C(=O)N[C@H]2CSSC[C@@H](C(N)=O)NC(=O)[C@H](CC(=O)O)NC(=O)[C@@H]3CCCN3C(=O)CNC(=O)C(CCCNC(=N)N)NC(=O)[C@H](CC(=O)O)NC(=O)CNC(=O)[C@H](CCCNC(=N)N)NC2=O)C(=O)OCc2c1cc1n(c2=O)Cc2cc3ccccc3nc2-1 (stereo partly drawn) [diCPT-iRGD] (Ac-C(S(CH2)2OCO2(CPT-20-yl))K(X1)CRGD[ξR]GPDC-NH2; disulfide 3-11)
ratio of activated (CD69+ or KLRG1+) NK cells (GL-261 tumors [1]): significantly increased | anti-tumor efficacy in STINGgt/gt mice (GL-261 tumors [2]; compared with WT (C57BL/6) mice): reduced | NK cells and CD8+ T cells in tumors of STINGgt/gt mice (GL-261 tumors [2]; day 10 post-treatment): lack of NK cells and CD8+ T cells accumulation
